Measured values published in article PMC5241692.
No constants are given. Whether binding was seen depends on the method and setting. In cells and extracts the contact can be indirect. Some entries that bind do so weakly or less than the wild type.

Protein sequences, listed by entry. Tags and fused reporters are not part of them.
UniProt Q63472: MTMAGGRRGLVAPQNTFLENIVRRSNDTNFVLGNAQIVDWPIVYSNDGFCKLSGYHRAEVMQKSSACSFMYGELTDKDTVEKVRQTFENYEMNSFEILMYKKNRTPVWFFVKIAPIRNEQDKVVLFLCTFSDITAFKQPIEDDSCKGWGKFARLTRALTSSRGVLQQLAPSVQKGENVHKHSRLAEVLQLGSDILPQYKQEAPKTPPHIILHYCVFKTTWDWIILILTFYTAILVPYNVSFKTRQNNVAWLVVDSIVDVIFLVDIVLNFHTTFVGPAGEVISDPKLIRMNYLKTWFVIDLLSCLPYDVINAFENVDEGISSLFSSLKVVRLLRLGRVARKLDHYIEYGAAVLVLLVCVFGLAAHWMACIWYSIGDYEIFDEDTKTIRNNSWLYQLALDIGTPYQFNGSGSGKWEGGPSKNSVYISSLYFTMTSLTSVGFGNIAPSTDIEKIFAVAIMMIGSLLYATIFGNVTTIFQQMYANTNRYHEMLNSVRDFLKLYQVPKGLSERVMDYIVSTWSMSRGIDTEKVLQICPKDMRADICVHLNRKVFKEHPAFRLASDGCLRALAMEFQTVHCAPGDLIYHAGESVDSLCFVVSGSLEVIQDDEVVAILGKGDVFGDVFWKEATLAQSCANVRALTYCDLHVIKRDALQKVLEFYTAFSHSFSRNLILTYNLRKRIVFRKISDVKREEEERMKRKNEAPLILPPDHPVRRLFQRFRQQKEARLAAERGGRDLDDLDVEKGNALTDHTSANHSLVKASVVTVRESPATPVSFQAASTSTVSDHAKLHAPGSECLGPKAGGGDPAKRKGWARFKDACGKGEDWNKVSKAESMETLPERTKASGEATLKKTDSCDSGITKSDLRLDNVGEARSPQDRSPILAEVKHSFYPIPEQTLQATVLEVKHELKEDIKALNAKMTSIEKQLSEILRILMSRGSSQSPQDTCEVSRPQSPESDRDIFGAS
UniProt Q14999: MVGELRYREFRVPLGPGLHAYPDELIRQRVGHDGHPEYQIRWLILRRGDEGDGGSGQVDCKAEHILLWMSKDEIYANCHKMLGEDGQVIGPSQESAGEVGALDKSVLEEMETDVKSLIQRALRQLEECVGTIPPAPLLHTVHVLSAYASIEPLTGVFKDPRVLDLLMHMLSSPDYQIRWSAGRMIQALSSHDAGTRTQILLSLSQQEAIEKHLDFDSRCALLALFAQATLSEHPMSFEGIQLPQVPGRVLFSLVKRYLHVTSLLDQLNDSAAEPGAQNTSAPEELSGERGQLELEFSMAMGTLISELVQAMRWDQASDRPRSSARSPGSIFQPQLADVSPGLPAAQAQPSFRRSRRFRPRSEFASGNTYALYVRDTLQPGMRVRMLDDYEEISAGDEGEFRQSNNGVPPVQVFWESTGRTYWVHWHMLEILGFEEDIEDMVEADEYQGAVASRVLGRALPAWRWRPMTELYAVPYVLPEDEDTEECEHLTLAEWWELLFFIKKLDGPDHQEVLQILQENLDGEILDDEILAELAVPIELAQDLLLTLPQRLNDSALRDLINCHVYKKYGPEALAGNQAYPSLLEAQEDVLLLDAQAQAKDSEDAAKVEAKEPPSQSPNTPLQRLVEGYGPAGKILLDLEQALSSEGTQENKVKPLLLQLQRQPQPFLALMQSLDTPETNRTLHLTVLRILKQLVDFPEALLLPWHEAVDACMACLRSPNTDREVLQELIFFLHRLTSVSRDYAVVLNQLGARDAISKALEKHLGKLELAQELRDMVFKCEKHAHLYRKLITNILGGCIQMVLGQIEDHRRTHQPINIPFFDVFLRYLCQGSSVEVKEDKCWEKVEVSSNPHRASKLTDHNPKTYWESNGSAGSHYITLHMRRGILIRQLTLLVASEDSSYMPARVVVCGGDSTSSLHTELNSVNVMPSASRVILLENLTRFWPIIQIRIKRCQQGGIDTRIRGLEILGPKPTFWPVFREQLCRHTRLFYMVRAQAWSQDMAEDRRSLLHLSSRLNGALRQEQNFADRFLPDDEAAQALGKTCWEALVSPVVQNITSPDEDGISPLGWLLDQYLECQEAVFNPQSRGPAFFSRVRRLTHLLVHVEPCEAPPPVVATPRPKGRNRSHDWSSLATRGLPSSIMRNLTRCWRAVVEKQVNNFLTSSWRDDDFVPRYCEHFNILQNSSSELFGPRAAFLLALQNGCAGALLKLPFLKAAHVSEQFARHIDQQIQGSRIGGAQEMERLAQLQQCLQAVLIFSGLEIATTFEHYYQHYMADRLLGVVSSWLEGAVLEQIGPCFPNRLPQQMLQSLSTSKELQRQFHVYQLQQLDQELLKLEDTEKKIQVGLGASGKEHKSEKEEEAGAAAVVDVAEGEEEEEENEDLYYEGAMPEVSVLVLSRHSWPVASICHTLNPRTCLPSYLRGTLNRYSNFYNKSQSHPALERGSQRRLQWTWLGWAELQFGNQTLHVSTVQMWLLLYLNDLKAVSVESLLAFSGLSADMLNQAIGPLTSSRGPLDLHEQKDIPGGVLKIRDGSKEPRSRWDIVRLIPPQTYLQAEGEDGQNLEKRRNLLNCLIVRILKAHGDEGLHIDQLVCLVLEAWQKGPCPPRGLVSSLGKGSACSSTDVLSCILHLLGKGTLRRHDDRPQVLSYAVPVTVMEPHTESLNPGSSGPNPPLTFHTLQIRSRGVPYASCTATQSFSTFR
UniProt D3ZEF4: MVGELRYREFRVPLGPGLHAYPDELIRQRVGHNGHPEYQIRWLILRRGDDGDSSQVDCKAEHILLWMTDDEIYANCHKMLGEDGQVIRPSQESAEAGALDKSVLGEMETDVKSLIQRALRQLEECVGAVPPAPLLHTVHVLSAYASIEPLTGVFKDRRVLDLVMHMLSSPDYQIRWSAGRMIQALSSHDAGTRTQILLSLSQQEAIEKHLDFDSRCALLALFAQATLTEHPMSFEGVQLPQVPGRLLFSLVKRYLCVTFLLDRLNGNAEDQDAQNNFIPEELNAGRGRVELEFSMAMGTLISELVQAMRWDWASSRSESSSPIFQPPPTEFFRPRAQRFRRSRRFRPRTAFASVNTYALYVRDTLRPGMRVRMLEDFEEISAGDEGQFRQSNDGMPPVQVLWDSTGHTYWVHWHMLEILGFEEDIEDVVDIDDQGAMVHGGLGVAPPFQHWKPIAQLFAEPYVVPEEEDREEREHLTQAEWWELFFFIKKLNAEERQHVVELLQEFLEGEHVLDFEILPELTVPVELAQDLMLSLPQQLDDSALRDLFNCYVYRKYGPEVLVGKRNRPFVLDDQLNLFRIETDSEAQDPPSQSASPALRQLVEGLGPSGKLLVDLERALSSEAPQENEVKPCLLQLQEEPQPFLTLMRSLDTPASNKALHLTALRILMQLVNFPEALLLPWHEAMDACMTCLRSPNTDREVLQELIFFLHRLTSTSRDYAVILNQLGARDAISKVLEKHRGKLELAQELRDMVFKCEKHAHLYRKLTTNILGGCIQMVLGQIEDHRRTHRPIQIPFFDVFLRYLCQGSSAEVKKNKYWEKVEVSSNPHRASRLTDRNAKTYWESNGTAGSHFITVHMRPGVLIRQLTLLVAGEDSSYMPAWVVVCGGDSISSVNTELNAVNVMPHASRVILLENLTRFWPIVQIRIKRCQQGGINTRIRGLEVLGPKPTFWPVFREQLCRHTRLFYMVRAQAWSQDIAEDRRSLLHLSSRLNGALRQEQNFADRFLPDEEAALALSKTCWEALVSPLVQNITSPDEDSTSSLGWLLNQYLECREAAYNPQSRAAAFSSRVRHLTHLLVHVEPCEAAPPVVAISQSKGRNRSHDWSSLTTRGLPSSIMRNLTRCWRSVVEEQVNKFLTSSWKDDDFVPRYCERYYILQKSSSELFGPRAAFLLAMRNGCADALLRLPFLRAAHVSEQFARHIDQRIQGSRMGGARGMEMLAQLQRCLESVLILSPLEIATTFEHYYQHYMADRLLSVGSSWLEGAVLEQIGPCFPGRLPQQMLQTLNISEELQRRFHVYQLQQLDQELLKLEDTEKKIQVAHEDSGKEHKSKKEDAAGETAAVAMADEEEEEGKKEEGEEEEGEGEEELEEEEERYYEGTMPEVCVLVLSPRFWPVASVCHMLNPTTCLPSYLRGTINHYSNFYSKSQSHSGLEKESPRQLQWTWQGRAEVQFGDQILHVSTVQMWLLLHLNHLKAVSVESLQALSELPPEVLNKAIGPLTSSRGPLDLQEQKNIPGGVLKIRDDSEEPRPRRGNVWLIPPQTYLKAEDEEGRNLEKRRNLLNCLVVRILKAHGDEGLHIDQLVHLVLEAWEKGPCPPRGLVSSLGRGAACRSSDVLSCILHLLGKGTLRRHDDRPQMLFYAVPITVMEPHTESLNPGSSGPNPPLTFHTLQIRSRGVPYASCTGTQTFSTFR

Columns and labels:
[1] = molecular target: rat Eag1 (rEag1) potassium channel (rat) (UniProt Q63472); assay: co-IP; HEK293T cells co-transfected; lysates in 1% Triton X-100 lysis buffer (100 mM NaCl, pH 7.5); protein A/G Sepharose beads coated with antibodies (anti-Myc or anti-rEag1), 16 hrs at 4 °C; immunoblotting
[2] = molecular target: endogenous rEag1 in rat forebrain (rat (endogenous in forebrain)) (UniProt Q63472); assay: co-IP; endogenous proteins; crude membrane fractions from forebrain homogenates of adult rats; immunoprecipitated with the anti-rEag1 antibody or rabbit IgG; immunoblotting

Substance	binding [1]	binding [2]
Myc-tagged human cullin 7 (from UniProt Q14999 1-1698)	binds	
endogenous Cul7 in rat forebrain (from UniProt D3ZEF4 1-1692)		binds
